Data taken from article PMC11387620.
No constants are given. Whether binding was seen depends on the method and setting. In cells and extracts the contact can be indirect. Some results given as binding are weak or reduced against the parent protein; the word gives no strength.

Protein sequences, listed by entry. Tags and fused reporters are not part of them.
UniProt P26196: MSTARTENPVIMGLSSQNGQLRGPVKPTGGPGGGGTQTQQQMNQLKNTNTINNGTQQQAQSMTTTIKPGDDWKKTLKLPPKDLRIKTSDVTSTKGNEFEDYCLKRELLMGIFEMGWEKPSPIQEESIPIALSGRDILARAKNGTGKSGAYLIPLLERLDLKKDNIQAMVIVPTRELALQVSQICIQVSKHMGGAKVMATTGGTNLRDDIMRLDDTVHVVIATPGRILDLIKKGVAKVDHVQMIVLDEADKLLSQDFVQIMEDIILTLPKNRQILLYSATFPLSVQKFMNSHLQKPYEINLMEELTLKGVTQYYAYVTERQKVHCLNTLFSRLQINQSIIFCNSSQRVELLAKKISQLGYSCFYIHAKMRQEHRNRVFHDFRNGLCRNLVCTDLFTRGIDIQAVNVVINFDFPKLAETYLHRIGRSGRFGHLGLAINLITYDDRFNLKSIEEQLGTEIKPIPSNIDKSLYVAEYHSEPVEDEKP

Columns and labels:
[1] = molecular target: DDX6 (human (endogenous in HCT116)) (UniProt P26196); assay: co-IP; endogenous DDX6 immunoprecipitated from HCT116 lysates (300 ug protein; E1A buffer; antibody overnight at 4°C, protein A/G beads), IgG control, Western blot; control, DCP1a KO and DCP1b KO cells
[2] = molecular target: DCP2 (human (endogenous in HCT116)) (UniProt Q8IU60); assay: co-IP; endogenous DCP2 immunoprecipitated from HCT116 lysates (300 ug protein; E1A buffer with 150 mM NaCl, 0.5% IGEPAL; antibody overnight at 4°C, protein A/G beads), Western blot; control, shLUC, shDCP1a, shDCP1b, DCP1a KO and DCP1b KO cells, with or without ectopic DCP1b

binding [1]	binding [2]	Binder
binds	binds	EDC4 (protein, UniProt Q6P2E9 1-1401) MASCASIDIEDATQHLRDILKLDRPAGGPSAESPRPSSAYNGDLNGLLVPDPLCSGDSTSANKTGLRTMPPINLQEKQVICLSGDDSSTCIGILAKEVEIVASSDSSISSKARGSNKVKIQPVAKYDWEQKYYYGNLIAVSNSFLAYAIRAANNGSAMVRVISVSTSERTLLKGFTGSVADLAFAHLNSPQLACLDEAGNLFVWRLALVNGKIQEEILVHIRQPEGTPLNHFRRIIWCPFIPEESEDCCEESSPTVALLHEDRAEVWDLDMLRSSHSTWPVDVSQIKQGFIVVKGHSTCLSEGALSPDGTVLATASHDGYVKFWQIYIEGQDEPRCLHEWKPHDGRPLSCLLFCDNHKKQDPDVPFWRFLITGADQNRELKMWCTVSWTCLQTIRFSPDIFSSVSVPPSLKVCLDLSAEYLILSDVQRKVLYVMELLQNQEEGHACFSSISEFLLTHPVLSFGIQVVSRCRLRHTEVLPAEEENDSLGADGTHGAGAMESAAGVLIKLFCVHTKALQDVQIRFQPQLNPDVVAPLPTHTAHEDFTFGESRPELGSEGLGSAAHGSQPDLRRIVELPAPADFLSLSSETKPKLMTPDAFMTPSASLQQITASPSSSSSGSSSSSSSSSSSLTAVSAMSSTSAVDPSLTRPPEELTLSPKLQLDGSLTMSSSGSLQASPRGLLPGLLPAPADKLTPKGPGQVPTATSALSLELQEVEPLGLPQASPSRTRSPDVISSASTALSQDIPEIASEALSRGFGSSAPEGLEPDSMASAASALHLLSPRPRPGPELGPQLGLDGGPGDGDRHNTPSLLEAALTQEASTPDSQVWPTAPDITRETCSTLAESPRNGLQEKHKSLAFHRPPYHLLQQRDSQDASAEQSDHDDEVASLASASGGFGTKVPAPRLPAKDWKTKGSPRTSPKLKRKSKKDDGDAAMGSRLTEHQVAEPPEDWPALIWQQQRELAELRHSQEELLQRLCTQLEGLQSTVTGHVERALETRHEQEQRRLERALAEGQQRGGQLQEQLTQQLSQALSSAVAGRLERSIRDEIKKTVPPCVSRSLEPMAGQLSNSVATKLTAVEGSMKENISKLLKSKNLTDAIARAAADTLQGPMQAAYREAFQSVVLPAFEKSCQAMFQQINDSFRLGTQEYLQQLESHMKSRKAREQEAREPVLAQLRGLVSTLQSATEQMAATVAGSVRAEVQHQLHVAVGSLQESILAQVQRIVKGEVSVALKEQQAAVTSSIMQAMRSAAGTPVPSAHLDCQAQQAHILQLLQQGHLNQAFQQALTAADLNLVLYVCETVDPAQVFGQPPCPLSQPVLLSLIQQLASDLGTRTDLKLSYLEEAVMHLDHSDPITRDHMGSVMAQVRQKLFQFLQAEPHNSLGKAARRLSLMLHGLVTPSLP
binds		DCP1b (protein, UniProt Q8IZD4 1-617) MAAVAAGGLVGKGRDISLAALQRHDPYINRIVDVASQVALYTFGHRANEWEKTDVEGTLFVYTRSASPKHGFTIMNRLSMENRTEPITKDLDFQLQDPFLLYRNARLSIYGIWFYDKEECQRIAELMKNLTQYEQLKAHQGTGAGISPVILNSGEGKEVDILRMLIKAKDEYTKCKTCSEPKKITSSSAIYDNPNLIKPIPVKPSENQQQRIPQPNQTLDPEPQHLSLTALFGKQDKATCQETVEPPQTLHQQQQQQQQQQEKLPIRQGVVRSLSYEEPRRHSPPIEKQLCPAIQKLMVRSADLHPLSELPENRPCENGSTHSAGEFFTGPVQPGSPHNIGTSRGVQNASRTQNLFEKLQSTPGAANKCDPSTPAPASSAALNRSRAPTSVTPVAPGKGLAQPPQAYFNGSLPPQTVGHQAHGREQSTLPRQTLPISGSQTGSSGVISPQELLKKLQIVQQEQQLHASNRPALAAKFPVLAQSSGTGKPLESWINKTPNTEQQTPLFQVISPQRIPATAAPSLLMSPMVFAQPTSVPPKERESGLLPVGGQEPPAAATSLLLPIQSPEPSVITSSPLTKLQLQEALLYLIQNDDNFLNIIYEAYLFSMTQAAMKKTM
	binds	EDC3 (protein, UniProt Q96F86 1-508) MATDWLGSIVSINCGDSLGVYQGRVSAVDQVSQTISLTRPFHNGVKCLVPEVTFRAGDITELKILEIPGPGDNQHFGDLHQTELGPSGAGCQVGINQNGTGKFVKKPASSSSAPQNIPKRTDVKSQDVAVSPQQQQCSKSYVDRHMESLSQSKSFRRRHNSWSSSSRHPNQATPKKSGLKNGQMKNKDDECFGDDIEEIPDTDFDFEGNLALFDKAAVFEEIDTYERRSGTRSRGIPNERPTRYRHDENILESEPIVYRRIIVPHNVSKEFCTDSGLVVPSISYELHKKLLSVAEKHGLTLERRLEMTGVCASQMALTLLGGPNRLNPKNVHQRPTVALLCGPHVKGAQGISCGRHLANHDVQVILFLPNFVKMLESITNELSLFSKTQGQQVSSLKDLPTSPVDLVINCLDCPENVFLRDQPWYKAAVAWANQNRAPVLSIDPPVHEVEQGIDAKWSLALGLPLPLGEHAGRIYLCDIGIPQQVFQEVGINYHSPFGCKFVIPLHSA
